Values of other authors, collected in patent US20260229307A1, “CLEAVED NEOEPITOPES” (IOGENETICS, LLC, priority 2023, published 2026).
At least one structure is not confirmed: it was looked up by name or label, or the drawing left a doubt.

Settings: human clinical trials

Q: For `CCOC(=O)[C@H]1O[C@@H]1C(=O)N[C@@H](CC(C)C)C(=O)NCCC(C)C` [aloxistatin], which “clinical benefit in muscular dystrophy” value is on record?
A: no clinical benefit
